Reference: article PMC8961561
These are yes or no findings as the source states them, for the method shown. Some binding calls cover weakened binding; strength is not graded here.

T1: RAS fragment …
T1 sequence (peptide): SYRKQVVIDGETCLLD

T2: TGFR2 fragment …
T2 sequence (peptide): CKFCDVRFSTCDNQ


Legend:
[1] = molecular target: T1, RAS fragment …; experiment: peptide or protein array; PEPscan: overlapping dodecapeptides (two amino acid shift) spanning the complete sequence of one partner on a cellulose membrane; saturated with 3% non-fat dry milk/3% BSA; incubated with the purified protein partner (4 mg/mL, 4 °C, overnight); antibody against that protein, HRP-conjugated secondary antibody, ECL; both purified
[2] = molecular target: T2, TGFR2 fragment …; experiment: as above

Row | binding [1] | binding [2] | Binder
1 | binds |  | RalGDS (protein, UniProt Q03386 1-895) MVQRMWAEASGPIGGAEPLFPGSRRSRSVWDAVRLEVGVPDSCPVVLHSFTQLDPDLPRLESSTQEIGEELINGVIYSISLRKVQLYPGATKGQRWLGCENESALNLYETCKVRTVKAGTLEKLVEHLVPAFQGSDLSYVTVFLCTYRAFTTTQQVLDLLFKRYGCILPYSSEDGGPQDQLKNAISSILGTWLDQYSEDFCQPPDFPCLKQLVAYVQLNMPGSDLERRAHLLLAQLEDLEPSEVEPEALSPAPVLSLKPASQLEPAPALLLTPSRAVASTPVREPAPVPVLASSPVVAPASELEPALEPPLDPEPTLAPAPELDPTVSQSLHLEPAPVPAPALEPSWPLPETTENGLCAKPHLLLFPPDLVAEQFTLMDAELFKKVVPYHCLGSIWSQRAKKGKEHLAPTIRATVAQFNNVANCVITTCLGDQSMKASDRARVVEHWIEVARECRVLKNFSSLYAILSALQSNAIHRLKKTWEEVSRGSFRVFQKLSEIFSDENNYSLSRELLIKEGTSKFATLEMNPRRTQRRQKETGVIQGTVPYLGTFLTDLVMLDTAMKDYLYGRLINFEKRRKEFEVIAQIKLLQSACNNYSIVPEEHFGAWFRAMGRLSEAESYNLSCELEPPSESASNTLRSKKSTAIVKRWERRQAPSTELSTSSSAHSKSCDQLRCSPYLSSGDITDALSVHSAGSSTSDVEEINMSFVPESPDGQEKKFWESASQSSPETSGISSASSSTSSSSASTTPVSTTRTHKRSVSGVCSYSSSLPLYNQQVGDCCIIRVSLDVDNGNMYKSILVTSQDKAPTVIRKAMDKHNLDEDEPEDYELLQIISEDHKLKIPENANVFYAMNSAANYDFILKKRAFTKGAKVKHGASSTLPRMKQKGLRIARGIF
2 |  | binds | Tumor Growth Factor beta 3 (TGF-beta3) (protein, UniProt P10600 24-412) LSTCTTLDFGHIKKKRVEAIRGQILSKLRLTSPPEPTVMTHVPYQVLALYNSTRELLEEMHGEREEGCTQENTESEYYAKEIHKFDMIQGLAEHNELAVCPKGITSKVFRFNVSSVEKNRTNLFRAEFRVLRVPNPSSKRNEQRIELFQILRPDEHIAKQRYIGGKNLPTRGTAEWLSFDVTDTVREWLLRRESNLGLEISIHCPCHTFQPNGDILENIHEVMEIKFKGVDNEDDHGRGDLGRLKKQKDHHNPHLILMMIPPHRLDNPGQGGQRKKRALDTNYCFRNLEENCCVRPLYIDFRQDLGWKWVHEPKGYYANFCSGPCPYLRSADTTHSTVLGLYNTLNPEASASPCCVPQDLEPLTILYYVGRTPKVEQLSNMVVKSCKCS
